From paper PMC6205183 (Oncotarget, 2018)

What was measured:
K562-R cells = test: Viability assay (Annexin V/7AAD), K562-R; type: cell-based; conditions: Homo sapiens, K-562R, read-out: TKI viability assay IC50
Protocol: (§1) Cells were removed from drug-containing culture medium, washed and re-cultured in fresh media (with testing drug) for 72 hours. Cells then were stained with 7-Amino-actinomycin D (7AAD) and Annexin V-PE. Flow cytometry (BD LSRFortessaTM X-20 with high-throughput platform) was performed to determine cell viability: cells stained positive for Annexin V-PE and 7AAD were considered to be apoptotic or dead respectively. The data were analysed using FCS Express software (DeNovo Software, Los Angeles, California, USA).

K562 DOX-R cells = test: Viability assay (Annexin V/7AAD), K562 DOX-R; type: cell-based; conditions: Homo sapiens, read-out: TKI viability assay IC50
Protocol: as §1

K562 DOX 55D-R cells = test: cells; conditions: Homo sapiens, K562, read-out: TKI viability assay IC50
Protocol: as §1

K562 T315I-R cells = test: cells; conditions: Homo sapiens, K562, read-out: TKI viability assay IC50
Protocol: as §1

Measured: IC50

Cc1ccc(NC(=O)c2ccc(CN3CCN(C)CC3)cc2)cc1Nc1nccc(-c2cccnc2)n1 [imatinib]
> 2000 nM: K562-R cells | K562 DOX-R cells | K562 DOX 55D-R cells | K562 T315I-R cells
